These are yes or no findings as the source states them, for the method shown. In cells and extracts the contact can be indirect. A result given as binding can be weak or reduced; the word gives no strength.
B1: IPO5 (protein, UniProt Q8BKC5 1-1097)
chain: MAAAAAEQQQFYLLLGNLLSPDNVVRKQAEETYENIPGRSKITFLLQAIRNTTAAEEARQMAAVLLRRLLSSAFDEVYPALPSDVQTAIKSELLMIIQMETQSSMRKKICDIAAELARNLIDEDGNNQWPEGLKFLFDSVSSQNMGLREAALHIFWNFPGIFGNQQQHYLDVIKRMLVQCMQDQEHPSIRTLSARATAAFILANEHNVALFKHFADLLPGFLQAVNDSCYQNDDSVLKSLVEIADTVPKYLRPHLEATLQLSLKLCGDTNLNNMQRQLALEVIVTLSETAAAMLRKHTSLIAQTIPQMLAMMVDLEEDEDWANADELEDDDFDSNAVAGESALDRMACGLGGKLVLPMIKEHIMQMLQNPDWKYRHAGLMALSAIGEGCHQQMEGILNEIVNFVLLFLQDPHPRVRYAACNAVGQMATDFAPGFQKKFHEKVIAALLQTMEDQGNQRVQAHAAAALINFTEDCPKSLLIPYLDNLVKHLHSIMVLKLQELIQKGTKLVLEQVVTSIASVADTAEEKFVPYYDLFMPSLKHIVENAVQKELRLLRGKTIECISLIGLAVGKEKFMQDASDVMQLLLKTQTDFNDMEDDDPQISYMISAWARMCKILGKEFQQYLPVVMGPLMKTASIKPEVALLDTQDMENMSDDDGWEFVNLGDQQSFGIKTAGLEEKSTACQMLVCYAKELKEGFVEYTEQVVKLMVPLLKFYFHDGVRVAAAESMPLLLECARVRGPEYLTQMWHFMCDALIKAIGTEPDSDVLSEIMHSFAKCIEVMGDGCLNNEHFEELGGILKAKLEEHFKNQELRQVKRQDEDYDEQVEESLQDEDDNDVYILTKVSDILHSIFSSYKEKVLPWFEQLLPLIVNLICPQRPWPDRQWGLCIFDDIVEHCSPASFKYAEYFISPMLQYVCDNSPEVRQAAAYGLGVMAQFGGDNYRPFCTDALPLLVRVIQAPEAKTKENVNATENCISAVGKIMKFKPDCVNVEEVLPHWLSWLPLHEDKEEAVQTFSYLCDLIESNHPIVLGPNNTNLPKIFSIIAEGEMHEAIKHEDPCAKRLANVVRQVQTSGGLWTECIAQLSPEQQAAIQELLNSA
B2: SYNCRIP (protein, UniProt Q7TMK9 1-623)
chain: MATEHVNGNGTEEPMDTTSAVIHSENFQTLLDAGLPQKVAEKLDEIYVAGLVAHSDLDERAIEALKEFNEDGALAVLQQFKDSDLSHVQNKSAFLCGVMKTYRQREKQGTKVADSSKGPDEAKIKALLERTGYTLDVTTGQRKYGGPPPDSVYSGQQPSVGTEIFVGKIPRDLFEDELVPLFEKAGPIWDLRLMMDPLTGLNRGYAFVTFCTKEAAQEAVKLYNNHEIRSGKHIGVCISVANNRLFVGSIPKSKTKEQILEEFSKVTEGLTDVILYHQPDDKKKNRGFCFLEYEDHKTAAQARRRLMSGKVKVWGNVGTVEWADPIEDPDPEVMAKVKVLFVRNLANTVTEEILEKSFSQFGKLERVKKLKDYAFIHFDERDGAVKAMEEMNGKDLEGENIEIVFAKPPDQKRKERKAQRQAAKNQMYDDYYYYGPPHMPPPTRGRGRGGRGGYGYPPDYYGYEDYYDYYGYDYHNYRGGYEDPYYGYEDFQVGARGRGGRGARGAAPSRGRGAAPPRGRAGYSQRGGPGSARGVRGARGGAQQQRGRGVRGARGGRGGNVGGKRKADGYNQPDTKRRQTNNQNWGSQPIAQQPLQGGDHSGNYGYKSENQEFYQDTFGQQWK

Tests used:
[1] = biological target: FLAG-tagged METTL7A1 (4T1-METTL7A1 cells) (mouse); assay: co-IP; FLAG-tagged METTL7A1 with its molecular partners in 4T1 cell extracts; when indicated extracts pre-treated 30 min at 37°C with RNase A (100 μg/ml), interactions unaffected; immunoblot
[2] = biological target: endogenous METTL7A1 (mouse (endogenous in NMuMG)); assay: co-IP; endogenous METTL7A1 with its molecular partners in NMuMG cell extracts; immunoblot

| Binder | binding [1] | binding [2] |
| --- | --- | --- |
| B1 | binds | binds |
| B2 | binds | binds |
